No constants are given. Whether binding was seen depends on the method and setting. Some entries that bind do so weakly or less than the wild type.

Chains of the proteins cited; added tags and fusions are not shown. Residues count along the entry.
UniProt P56536, residues 2-955: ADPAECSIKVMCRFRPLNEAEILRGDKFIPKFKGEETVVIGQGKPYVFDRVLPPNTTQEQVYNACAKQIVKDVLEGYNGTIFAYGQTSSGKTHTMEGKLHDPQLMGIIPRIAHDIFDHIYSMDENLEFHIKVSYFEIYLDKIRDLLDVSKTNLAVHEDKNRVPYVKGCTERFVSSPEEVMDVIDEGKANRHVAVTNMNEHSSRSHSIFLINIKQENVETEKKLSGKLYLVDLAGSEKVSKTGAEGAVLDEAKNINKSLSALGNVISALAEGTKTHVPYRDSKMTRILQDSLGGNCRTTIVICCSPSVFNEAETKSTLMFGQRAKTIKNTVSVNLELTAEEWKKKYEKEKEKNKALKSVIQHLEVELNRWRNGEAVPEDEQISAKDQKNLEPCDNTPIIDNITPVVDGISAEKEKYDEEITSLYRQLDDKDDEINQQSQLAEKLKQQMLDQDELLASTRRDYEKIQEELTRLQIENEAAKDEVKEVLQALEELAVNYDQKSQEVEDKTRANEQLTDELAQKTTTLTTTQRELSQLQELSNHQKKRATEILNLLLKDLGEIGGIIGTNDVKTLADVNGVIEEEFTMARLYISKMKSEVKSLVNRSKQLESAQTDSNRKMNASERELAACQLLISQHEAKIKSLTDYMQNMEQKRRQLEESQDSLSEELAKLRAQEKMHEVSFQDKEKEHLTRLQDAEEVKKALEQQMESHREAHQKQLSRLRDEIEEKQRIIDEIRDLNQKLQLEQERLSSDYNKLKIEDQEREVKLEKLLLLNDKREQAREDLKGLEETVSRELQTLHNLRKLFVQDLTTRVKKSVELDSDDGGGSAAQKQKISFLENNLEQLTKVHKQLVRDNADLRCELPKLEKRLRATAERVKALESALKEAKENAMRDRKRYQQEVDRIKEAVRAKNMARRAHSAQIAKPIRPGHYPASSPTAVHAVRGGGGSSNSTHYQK

This experiment has as its target His-Kif5C (KHC), wild type, the heavy chain of Kinesin-1^WT (rat) (UniProt P56536). Description: SEC; KHC (His-KIF5C or an elbow variant) and KLC1 co-expressed in E. coli BL21(DE3) from two plasmids, His-Trap, then Superose6 10/300 in 20 mM HEPES pH 7.4, 150 mM NaCl, 1 mM MgCl2, 0.1 mM ADP, 0.5 mM TCEP; fractions on Coomassie-stained gels. Background: SEC sorts molecules by how far they enter the pores of the column.

Take “His-Kif5C (KHC), wild type, the heavy chain of Kinesin-1^WT (from UniProt P56536 2-955)”: the binding entry is “binds”.
